Source: US20250177533A1, “PHOTODYNAMIC THERAPY AND DIAGNOSIS” (RMW CHO Group Limited, priority 2021, published 2025)

Tested on: Human ovarian cancer cell line SKOV3
Assay: Phototoxicity in SKOV3 cells (660 nm laser or LED, AlamarBlue viability)
Format: cell-based
Settings: calculated using phototoxicity IC90 vs dark toxicity IC10, SKOV3; phototoxicity by LED where marked *
Description: All data are shown as mean±SD (where appropriate).
Media was then replaced with fresh media containing AlamarBlue, and % viable cells remaining assessed as above. […] All measurements were made in quadruplicate.

In order of falling “Therapeutic Index” value:
1. CCC1=C(C)c2cc3[nH]c(cc4nc(c(C)c5cc(C)c(cc1n2)[nH]5)[C@@H](CCC(=O)OC)[C@@H]4C)c(C)c3COC(=O)NCC[P+](c1ccccc1)(c1ccccc1)c1ccccc1 [Compound 46, phyllochlorin methyl ester 13-(N-(2-triphenylphosphoniumethyl)bromide)carbamate]  912.14
2. CCC1=C(C)c2cc3[nH]c(cc4nc(c(C)c5cc(C)c(cc1n2)[nH]5)[C@@H](CCC(=O)OC)[C@@H]4C)c(C)c3COC(=O)NCCCOCCC[P+](c1ccccc1)(c1ccccc1)c1ccccc1 [Compound 40, phyllochlorin methyl ester 13-(N-(3-(3-triphenylphosphoniumpropoxy)propyl)chloride)carbamate]  768.13
3. CCC1=C(C)c2cc3[nH]c(cc4nc(c(C)c5cc(C)c(cc1n2)[nH]5)[C@@H](CCC(=O)OC)[C@@H]4C)c(C)c3C(C)OCCC[n+]1ccccc1 (stereo partly shown) [Compound 20, phyllochlorin methyl ester 3-pyridinium bromide propyl ether]  666.00
4. CCC1=C(C)c2cc3[nH]c(cc4nc(c(C)c5cc(C)c(cc1n2)[nH]5)[C@@H](CCC(=O)OC)[C@@H]4C)c(C)c3COC(=O)NCCOC [Compound 29, phyllochlorin methyl ester 13-(2-methoxyethyl)carbamate]  346.02
5. phyllochlorin methyl ester 3-triphenylphosphonium bromide propyl ether [Compound 21]  316.75
6. CCC1=C(C)c2cc3[nH]c(cc4nc(c(C)c5cc(C)c(cc1n2)[nH]5)[C@@H](CCC(=O)OC)[C@@H]4C)c(C)c3C(C)OCCOCC[P+](c1ccccc1)(c1ccccc1)c1ccccc1 (stereo partly shown) [Compound 23, phyllochlorin methyl ester 2-(2-triphenylphosphoniumethoxy)ethyl ether chloride]  257.17
7. CCC1=C(C)c2cc3[nH]c(cc4nc(c(C)c5cc(C)c(cc1n2)[nH]5)[C@@H](CCC(=O)N(C)CCCO)[C@@H]4C)c(C)c3C(C)OCCCS[C@@H]1O[C@H](CO)[C@@H](O)[C@H](O)[C@H]1O (stereo partly drawn) [Compound 2, phyllochlorin N-3-hydroxypropyl-N-methyl propylamide propyloxythio-D-glucose]  254.67
8. CCC1=C(C)c2cc3[nH]c(cc4nc(c(C)c5cc(C)c(cc1n2)[nH]5)[C@@H](CCC(=O)OC)[C@@H]4C)c(C)c3C(C)OCCCS[C@@H]1O[C@H](CO)[C@@H](O)[C@H](O)[C@H]1O (stereo partly drawn) [Compound 1, methyl 3-((7S,8S)-18-ethyl-2,5,8,12,17-pentamethyl-13-(1-(3-(((2S,3R,4S,5S,6R)-3,4,5-trihydroxy-6-(hydroxymethyl)tetrahydro-2H-pyran-2-yl)thio)propoxy)ethyl)-7H,8H-porphyrin-7-yl) propanoate]  225.00
9. CCC1=C(C)c2cc3[nH]c(cc4nc(c(C)c5cc(C)c(cc1n2)[nH]5)[C@@H](CCC(=O)OC)[C@@H]4C)c(C)c3CO [Compound 3, phyllochlorin 13-hydroxymethyl methyl ester]  148.44
10. CCC1=C(C)c2cc3[nH]c(cc4nc(c(C)c5cc(C)c(cc1n2)[nH]5)[C@@H](CCC(=O)N(C)CCOCCOCCOC)[C@@H]4C)c(C)c3COC(=O)NCCCCCC[P+](c1ccccc1)(c1ccccc1)c1ccccc1 [Compound 43, phyllochlorin 13-(6-(triphenylphosphonium bromide)hexyl)carbamate N-methyl-N-3,6,9-trioxadecyl propylamide]  140.21
11. CCC1=C(C)c2cc3[nH]c(cc4nc(c(C)c5cc(C)c(cc1n2)[nH]5)[C@@H](CCC(=O)N(C)CCOCCOCCOCCOCCOCCOC)[C@@H]4C)c(C)c3CO [Compound 24, phyllochlorin 13-hydroxymethyl N-methyl-N-3,6,9,12,15,18-hexaoxanonadecyl propylamide]  81.89
12. CCC1=C(C)c2cc3[nH]c(cc4nc(c(C)c5cc(C)c(cc1n2)[nH]5)[C@@H](CCC(=O)O)[C@@H]4C)c(C)c3C(C)O (stereo partly shown) [Compound 27, phyllochlorin 13-(ethyl-1-alcohol)]  26.50
13. CCC1=C(C)c2cc3[nH]c(cc4nc(c(C)c5cc(C)c(cc1n2)[nH]5)[C@@H](CCC(=O)OC)[C@@H]4C)c(C)c3C=O [Compound 30, phyllochlorin 13-formyl methyl ester]  20.16
14. CCC1=C(C)c2cc3[nH]c(cc4nc(c(C)c5cc(C)c(cc1n2)[nH]5)[C@@H](CCCO[C@@H]1O[C@H](CO)[C@@H](O)[C@H](O)[C@H]1O)[C@@H]4C)c(C)c3CO[C@@H]1O[C@H](CO)[C@@H](O)[C@H](O)[C@H]1O [Compound 33, phyllochlorin 13-hydroxymethyl-3-hydroxypropyl-bis-β-D-glucoside ether]  18.41
15. CCC1=C(C)c2cc3[nH]c(cc4nc(c(C)c5cc(C)c(cc1n2)[nH]5)[C@@H](CCC(=O)N(C)CCOCCOCCOC)[C@@H]4C)c(C)c3CO [Compound 42, phyllochlorin 13-hydroxymethyl N-methyl-N-3,6,9-trioxadecyl propylamide]  17.36
16. CCC1=C(C)c2cc3[nH]c(cc4nc(c(C)c5cc(C)c(cc1n2)[nH]5)[C@@H](CCC(=O)OC)[C@@H]4C)c(C)c3CO[C@@H]1O[C@H](CO)[C@@H](O[C@H]2O[C@H](CO)[C@@H](O)[C@H](O)[C@H]2O)[C@H](O)[C@H]1O [Compound 8, phyllochlorin 13-hydroxymethyl-β-D-maltose ether methyl ester]  11.19
17. CCC1=C(C)c2cc3[nH]c(cc4nc(c(C)c5cc(C)c(cc1n2)[nH]5)[C@@H](CCC(=O)OC)[C@@H]4C)c(C)c3CO[C@@H]1O[C@H](CO)[C@@H](O)[C@H](O)[C@H]1O [Compound 4, phyllochlorin 13-hydroxymethyl-β-D-glucoside ether methyl ester]  7.83
18. CCC1=C(C)c2cc3[nH]c(cc4nc(c(C)c5cc(C)c(cc1n2)[nH]5)[C@@H](CCC(=O)N(C)CCCO[C@@H]1O[C@H](CO)[C@@H](O)[C@H](O)[C@H]1O)[C@@H]4C)c(C)c3CO[C@@H]1O[C@H](CO)[C@@H](O)[C@H](O)[C@H]1O [Compound 12, phyllochlorin 13-hydroxymethyl-β-D-glucoside ether-β-D-glucosyl-N-methylpropylamide]  6.99
19. CCC1=C(C)c2cc3[nH]c(cc4nc(c(C)c5cc(C)c(cc1n2)[nH]5)[C@@H](CCC(=O)N(C)CCCO)[C@@H]4C)c(C)c3CO[C@@H]1O[C@H](CO)[C@@H](O)[C@H](O)[C@H]1O [Compound 6, phyllochlorin N-3-hydroxypropyl-N-methyl-propylamide 13-hydroxymethyl-β-D-glucoside ether]  6.29
20. CCC1=C(C)c2cc3[nH]c(cc4nc(c(C)c5cc(C)c(cc1n2)[nH]5)[C@@H](CCC(=O)N(C)CCCOCCC[P+](c1ccccc1)(c1ccccc1)c1ccccc1)[C@@H]4C)c(C)c3CO[C@@H]1O[C@H](CO)[C@@H](O)[C@H](O)[C@H]1O [Compound 19]  5.00
21. CCC1=C(C)c2cc3[nH]c(cc4nc(c(C)c5cc(C)c(cc1n2)[nH]5)[C@@H](CCC(=O)NCCOCCO[C@@H]1O[C@H](CO)[C@@H](O)[C@H](O)[C@H]1O)[C@@H]4C)c(C)c3CO[C@@H]1O[C@H](CO)[C@@H](O)[C@H](O)[C@H]1O [Compound 16, phyllochlorin 13-hydroxymethyl-β-D-glucoside ether-β-D-1-glucose-2-ethoxy-N-ethanamine]  3.25
22. CCC1=C(C)c2cc3[nH]c(cc4nc(c(C)c5cc(C)c(cc1n2)[nH]5)[C@@H](CCC(=O)N(C)C[C@H](O)[C@@H](O)[C@H](O)[C@H](O)CO)[C@@H]4C)c(C)c3CO[C@@H]1O[C@H](CO)[C@@H](O)[C@H](O)[C@H]1O [Compound 10, phyllochlorin N-meglumine-propylamide-13-hydroxymethyl-β-D-glucoside ether]  3.16
23. C=Cc1c(C)c2cc3nc(c(C)c4[nH]c(cc5nc(cc1[nH]2)C(C)=C5CC)c(C)c4C(=O)O)[C@@H](CCC(=O)O)[C@@H]3C [Chlorin e4 disodium, reference compound]  1.89
24. C=Cc1c(C)c2cc3nc(c(CC(=O)N[C@@H](CC(=O)O)C(=O)O)c4[nH]c(cc5nc(cc1[nH]2)C(C)=C5CC)c(C)c4C(=O)O)[C@@H](CCC(=O)O)[C@@H]3C [Talaporfin sodium, reference compound]  0.49

For `CCC1=C(C)c2cc3[nH]c(cc4nc(c(C)c5cc(C)c(cc1n2)[nH]5)[C@@H](CCC(=O)OC)[C@@H]4C)c(C)c3COC(=O)NCCCCCC[P+](c1ccccc1)(c1ccccc1)c1ccccc1` [Compound 39, phyllochlorin methyl ester 13-(6-(triphenylphosphonium bromide)hexyl)carbamate], the “Therapeutic Index” value was 3,557.22.
With `CCOC(=O)CC[C@@H]1c2nc(cc3[nH]c(cc4nc(cc5[nH]c(cc5C)c2C)C(CC)=C4C)c(COC(=O)NCCC[P+](c2ccccc2)(c2ccccc2)c2ccccc2)c3C)[C@H]1C` [Compound 53, phyllochlorin ethyl ester 13-(N-(3-triphenylphosphoniumpropyl)bromide)carbamate] the “Therapeutic Index” value was 2,909.09.
With `CCC1=C(C)c2cc3[nH]c(cc4nc(c(C)c5cc(C)c(cc1n2)[nH]5)[C@@H](CCC(=O)OC)[C@@H]4C)c(C)c3C(C)OCCC[n+]1ccc(C)cc1` (stereo partly shown) [Compound 28] the “Therapeutic Index” value was 1,625.67.
In the case of `CCC1=C(C)c2cc3[nH]c(cc4nc(c(C)c5cc(C)c(cc1n2)[nH]5)[C@@H](CCC(=O)OC)[C@@H]4C)c(C)c3COC(=O)NCCC[P+](c1ccccc1)(c1ccccc1)c1ccccc1` [Compound 45, phyllochlorin methyl ester 13-(N-(3-triphenylphosphoniumpropyl)bromide)carbamate], the “Therapeutic Index” value was 3,314.17.
